Measurements as given in the supplement of paper PMC11348887.
Counter-ions that a name gives are not always drawn. The list shows a part of the results. Small differences around the control level are noise.

tested on: hPSC-derived cortical neurons (WA09); assay: nucleus roundness z-score vs screen plate; higher = rounder nuclei (more mature); conditions: 5 µM; treatment: days 7-14 after plating, readout day 21

Row | SMILES | nucleus roundness z-score
1 | Nc1ccn([C@@H]2O[C@H](CO)[C@@H](O)[C@@H]2O)c(=O)n1 [Cytarabine] | 0.437
2 | CC(C)(C#N)c1cc(Cn2cncn2)cc(C(C)(C)C#N)c1 [Anastrozole] | 0.297
3 | Cc1nc2ccc(NC(=O)Nc3ccnc4cccnc34)cc2o1 | 0.0646
4 | CN(C)CCc1c[nH]c2ccc(C[C@H]3COC(=O)N3)cc12 [Zolmitriptan] | -0.0163
5 | CN(C)CCC=C1c2ccccc2C=Cc2ccccc21 [Cyclobenzaprine HCl] | -0.0555
6 | O=C(/C=C/c1ccc(CN(CCO)CCc2c[nH]c3ccccc23)cc1)NO [LAQ824 (Dacinostat)] | -3.7

tested on: hPSC-derived cortical neurons (WA09); assay: KCl-induced FOS+/EGR-1+ double-positive nuclei fraction z-score (KCl minus unstimulated); higher = stronger activity-induced IEG response; conditions: 5 µM; treatment: days 7-14 after plating, readout day 21

Row | SMILES | KCl-induced FOS+/EGR-1+ double-positive nuclei fraction z-score
7 | CC(C(=O)O)c1ccc(-c2ccccc2)c(F)c1 (stereo not given) [Flurbiprofen] | 0.46
8 | CCCc1cc2c(N3CCN(C4=NCC(C)(C)S4)CC3)ncnc2s1 [MI-2 (Menin-MLL Inhibitor)] | -2.07
9 | Cc1ccc(NC(=O)c2ccc(CN3CCN(C)CC3)cc2)cc1Nc1nc(-c2cccnc2)cs1 [Masitinib (AB1010)] | 0.218
10 | O=C(/C=C\n1cnc(-c2cc(C(F)(F)F)cc(C(F)(F)F)c2)n1)N1CC(F)(F)C1 | 7.38
11 | O=C1c2c(O)ccc(O)c2C(=O)c2c(NCCNCCO)ccc(NCCNCCO)c21 [Mitoxantrone HCl] | -0.903
12 | C#C[C@]1(O)CC[C@H]2[C@@H]3CCC4=CC(=O)CC[C@@H]4[C@H]3CC[C@@]21CC [Levonorgestrel] | -0.813
13 | CN1[C@@H]2CC[C@H]1C[C@@H](OC(c1ccccc1)c1ccccc1)C2 [Benztropine mesylate] | -0.93
14 | CCCc1nc(C(C)(C)O)c(C(=O)OCc2oc(=O)oc2C)n1Cc1ccc(-c2ccccc2-c2nnn[nH]2)cc1 [Olmesartan Medoxomil] | -0.737
15 | O=C(NCCCNc1nc(Nc2cccc(NC(=O)N3CCCC3)c2)ncc1I)c1cccs1 | -0.197
16 | CCCN[C@H]1CCc2nc(N)sc2C1 [Pramipexole] | -0.444
17 | NC[C@H]1O[C@H](O[C@H]2[C@H](O[C@@H]3O[C@H](CO)[C@@H](O)[C@H]3O)[C@@H](O)[C@H](N)C[C@@H]2N)[C@H](N)[C@@H](O)[C@@H]1O [Ribostamycin Sulfate] | 0.771
18 | N[C@@H](CC(=O)N1CCn2c(nnc2C(F)(F)F)C1)Cc1cc(F)c(F)cc1F [Sitagliptin phosphate monohydrate] | -0.155
19 | CCOc1nc2cccc(C(=O)O)c2n1Cc1ccc(-c2ccccc2-c2nnn[nH]2)cc1 [Candesartan] | 0.689
20 | C=C[C@@]1(C)CC(=O)[C@]2(O)[C@@]3(C)[C@@H](O)CCC(C)(C)[C@@H]3[C@H](O)[C@H](OC(C)=O)[C@@]2(C)O1 [Forskolin] | 0.867
21 | Cc1cc(Cn2cnc3c2CC(C(=O)O)N(C(=O)C(c2ccccc2)c2ccccc2)C3)ccc1N(C)C (stereo not given) | 0.407
22 | NC12CC3CC(CC(C3)C1)C2 [Amantadine HCl] | -0.262
23 | C[C@H]1COc2c(N3CCN(C)CC3)c(F)cc3c(=O)c(C(=O)O)cn1c23 [Levofloxacin hydrate] | -0.0889
24 | Oc1ccc([C@H]2COc3cc(O)ccc3C2)cc1 [Equol] | 0.488
25 | O=C(O)C1=CO[C@@H](O[C@@H]2O[C@H](CO)[C@@H](O)[C@H](O)[C@H]2O)[C@@H]2C(CO)=CC[C@H]12 [Geniposidic acid] | 0.476
26 | CCOC(=O)[N-]c1c[n+](N2CCOCC2)no1 [Molsidomine] | -0.237
27 | Cc1ccc(C)c(OCCCC(C)(C)C(=O)O)c1 [Gemfibrozil] | 0.111
28 | Cc1ccc(S(=O)(=O)n2c(N)nc3ccccc32)cc1 [ML130 (Nodinitib-1)] | 1.29
29 | CC1(C)CC[C@]2(C(=O)O)CC[C@]3(C)C(=CC[C@@H]4[C@@]5(C)CC[C@H](O)C(C)(C)[C@@H]5CC[C@]43C)[C@@H]2C1 [Oleanolic Acid] | -1.13
30 | CCCC(C(=O)OCCN(CC)CC)(c1ccccc1)c1ccccc1 [Proadifen HCl] | -0.411
31 | O=C(N/N=C/c1ccc(O)c(O)c1)c1cc2ccccc2cc1O [Dynasore] | -0.0182
32 | CC(C)NCC(O)COc1ccc(CCOCC2CC2)cc1 (stereo not given) [Betaxolol] | 0.648
33 | C=CC(=O)Nc1cccc(Nc2nc(Nc3ccc(Oc4ccnc(C(=O)NC)c4)cc3)ncc2F)c1 | -0.00235
34 | CCN1/C(=C/C(C)=O)Sc2ccc(OC)cc21 | -0.094
35 | COCCOC(=O)C1=C(C)NC(C)=C(C(=O)OC/C=C/c2ccccc2)C1c1cccc([N+](=O)[O-])c1 (stereo not given) [Cilnidipine] | -0.923

No new results follow: entries from further up.
Row | SMILES | KCl-induced FOS+/EGR-1+ double-positive nuclei fraction z-score
17 | NC[C@H]1O[C@H](O[C@H]2[C@H](O[C@@H]3O[C@H](CO)[C@@H](O)[C@H]3O)[C@@H](O)[C@H](N)C[C@@H]2N)[C@H](N)[C@@H](O)[C@@H]1O [Ribostamycin Sulfate] | 0.771
18 | N[C@@H](CC(=O)N1CCn2c(nnc2C(F)(F)F)C1)Cc1cc(F)c(F)cc1F [Sitagliptin phosphate monohydrate] | -0.155
19 | CCOc1nc2cccc(C(=O)O)c2n1Cc1ccc(-c2ccccc2-c2nnn[nH]2)cc1 [Candesartan] | 0.689
20 | C=C[C@@]1(C)CC(=O)[C@]2(O)[C@@]3(C)[C@@H](O)CCC(C)(C)[C@@H]3[C@H](O)[C@H](OC(C)=O)[C@@]2(C)O1 [Forskolin] | 0.867
21 | Cc1cc(Cn2cnc3c2CC(C(=O)O)N(C(=O)C(c2ccccc2)c2ccccc2)C3)ccc1N(C)C (stereo not given) | 0.407
22 | NC12CC3CC(CC(C3)C1)C2 [Amantadine HCl] | -0.262
